Assay results reported in the supplement of paper PMC6078165.

Tested on: MDAMB436
Test: relative JC-1 red fluorescence (viability) vs pre-drug, coculture with fibroblast (fraction); higher = more viable cancer cells
Conditions: 10 µM
Experimental: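 JC-1 labelled TNBC cells cocultured 1:1 (1,500 cells each) with CellTrace Violet stained primary or stromal fibroblasts in 384-well plates in FluoroBrite medium, treated with one of 42 anticancer drugs at 0.1, 1, 10 or 100 uM. JC-1 red fluorescence (mitochondrial integrity in cancer cells only) was read by plate reader every 8 h for 72 h. Values are normalised to each well's pre-drug value. The stock of one drug was tenfold lower, so its dose labels may be too high.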

COc1cc([C@@H]2c3cc4c(cc3[C@@H](O[C@@H]3O[C@@H]5CO[C@@H](c6cccs6)O[C@H]5[C@H](O)[C@H]3O)[C@H]3COC(=O)[C@H]23)OCO4)cc(OC)c1O [Teniposide]
relative JC-1 red fluorescence
Conditions | 8 h | 16 h | 24 h | 32 h | 40 h | 48 h | 56 h | 64 h | 72 h
coculture fibroblast: C12385 | 0.817 | 0.792 | 0.7941 | 0.73 | 0.706 | 0.683 | 0.67 | 0.656 | 0.66
coculture fibroblast: H6013 | 0.87 | 0.8586 | 0.86932 | 0.877 | 0.872 | 0.898 | 0.873 | 0.861 | 0.83
coculture fibroblast: H6019 | 0.7842 | 0.769 | 0.77 | 0.718 | 0.699 | 0.696 | 0.69 | 0.683 | 0.685
coculture fibroblast: H6076 | 0.794 | 0.753 | 0.749 | 0.714 | 0.708 | 0.682 | 0.684 | 0.681 | 0.679
coculture fibroblast: H6231 | 0.7148 | 0.647 | 0.691 | 0.613 | 0.605 | 0.575 | 0.582 | 0.565 | 0.559
coculture fibroblast: HADF | 0.8088 | 0.805 | 0.805 | 0.788 | 0.793 | 0.835 | 0.78 | 0.784 | 0.749
coculture fibroblast: HCFa | 0.856 | 0.84225 | 0.837 | 0.845 | 0.861 | 0.899 | 0.853 | 0.862 | 0.823
coculture fibroblast: HCPF | 0.797 | 0.766 | 0.767 | 0.693 | 0.673 | 0.631 | 0.622 | 0.603 | 0.588
coculture fibroblast: HHSteC | 0.8586 | 0.861 | 0.854 | 0.847 | 0.863 | 0.887 | 0.849 | 0.835 | 0.787
coculture fibroblast: HMF | 0.807 | 0.78 | 0.774 | 0.74 | 0.729 | 0.682 | 0.683 | 0.656 | 0.649
coculture fibroblast: HPFa | 0.88 | 0.875 | 0.87 | 0.856 | 0.8652 | 0.8892 | 0.8313 | 0.8241 | 0.777
coculture fibroblast: HUF | 0.848 | 0.8088 | 0.8151 | 0.769 | 0.743 | 0.73 | 0.71 | 0.712 | 0.719
coculture fibroblast: Hs5 | 0.8 | 0.781 | 0.784 | 0.737 | 0.724 | 0.675 | 0.683 | 0.653 | 0.65
coculture fibroblast: Hs27A | 0.872 | 0.8691 | 0.889 | 0.908 | 0.912 | 0.848 | 0.8 | 0.794 | 0.754
coculture fibroblast: Hs343T | 0.819 | 0.784 | 0.771 | 0.73 | 0.699 | 0.665 | 0.647 | 0.634 | 0.643
coculture fibroblast: WS1 | 0.8 | 0.7689 | 0.7582 | 0.7015 | 0.6664 | 0.651 | 0.632 | 0.609 | 0.605

Values are relative to the signal before dosing, not to a vehicle control; the signal also falls without drug.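 Fibroblast labels name human fibroblasts: mostly primary ones from tissues such as uterus (C12385, HUF), lung (H6013), bone (Hs27A), adrenal (HADF) and skin (WS1), plus mammary HMF and breast cancer-associated Hs343T. The cancer cells are basal-like or mesenchymal-like triple-negative breast cancer lines. The paper calls a changed response a hit when it shifts by more than 3x the replicate standard deviation. The tissue of the other fibroblasts is not given here.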
